These results are taken from PubChem BioAssay AID2685 (National Center for Advancing Translational Sciences (NCATS), 2010).

A short description of the experiment: qHTS Assay for Lipid Storage Modulators in Drosophila S3 Cells.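 For cell number change: cells counted by Cell Tracker Red CMTPX staining in the red channel.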 Particulars: BODIPY lipid droplet fluorescence, 18-24 h; for cell number change: measured here: cell count max response, cells fed with added oleic acid. In a few lines: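 Drosophila S3 cells got compounds at several concentrations plus oleic acid (400 uM solution). Laser-scanning cytometry with 488 nm excitation read lipid droplets at 500-530 nm and cells at 575-640 nm. Percent activity was relative to 20 uM Triacsin C.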

Setting [1] is: measured here: lipid fluorescence (Fed channel) AC50, cells fed with added oleic acid.
[2] abbreviates: measured here: cell number channel AC50, cells fed with added oleic acid.

Structures are written as SMILES. The list shows a part of the results. These are further read-outs of the screen, such as a control signal, another cell line or another target. No call is given for them. The list favours compounds with an active or inconclusive main result. Potencies come from curve fits of mixed quality, noted in brackets.

In the case of `Cc1cccc(N2NC(=O)/C(=C/c3ccc(-c4ccc(Cl)c(C(=O)O)c4)o3)C2=O)c1`, the cell number change worked out at 9.6%. Besides, the AC50 under setting [1] is 0.58 µM [falling, single point]. In the case of `O=C(N/N=C/c1oc(O)c2ccccc12)c1ccccc1`, the cell number change is -3.19%. The AC50 under setting [1] is 6.51 µM [falling, single point].

Take `CN(C)S(=O)(=O)c1cccc(COC(=O)c2cccnc2Cl)c1`: the cell number change was determined as 9.46%. Besides, the AC50 under setting [2] was 0.103 µM [rising, full curve, poor fit]. Under setting [1], the AC50 was 4.11 µM [falling, full curve]. Take `Cc1ccc(SC(CC(=O)c2ccc(C(C)(C)C)cc2)C(=O)O)cc1` (centres undefined): the cell number change was -22.5%. Besides, the AC50 under setting [2] was 0.651 µM [falling, full curve, poor fit]. For the same compound, under setting [1], the AC50 was 0.58 µM [falling, full curve]. As for `CN(/N=C/c1ccc(O)cc1O)c1nc(-c2ccccc2)cc(-c2ccccc2)n1`, the cell number change was -59%. Besides, the AC50 under setting [2] was 18.4 µM [falling, single point]. Under setting [1], the AC50 is 29.1 µM [falling, single point]. As to `CC(=O)C1=C(O)C(=O)N(Cc2ccccc2)C1c1ccco1` (centres undefined), the cell number change was -30.2%. The AC50 under setting [2] was 7.31 µM [falling, partial curve, poor fit]. Further, under setting [1], the AC50 is 23.1 µM [falling, partial curve]. Consider `O=S(=O)(c1ccc(Cl)nc1)N1CCN(Cc2ccc3c(c2)OCO3)CC1`, for which the cell number change was determined as 41.8%. As for `COc1ccc(OCC(=O)N2CCN(C(=O)COc3ccc(Br)cc3)CC2)cc1`, the AC50 under setting [1] is 2.91 µM [rising, partial curve]. For the compound `COc1ccc(N2C(=O)C3CCCN3C2c2ccccc2OC)cc1` (centres undefined), the cell number change was determined as 8.16%. For the same compound, under setting [2], the AC50 is 0.92 µM [rising, full curve, poor fit]. Turning to `Cc1[nH]nc2c1C(c1ccco1)C(C#N)=C(N)O2` (centres undefined), the cell number change came out at 30.5%. Moreover, under setting [2], the AC50 was 29.1 µM [rising, single point]. For the same compound, the AC50 under setting [1] is 29.1 µM [rising, single point].

On to `CC(C)(C)c1nnc(NC(=O)CCS(=O)(=O)c2ccccc2)s1`, for which the cell number change stood at 3.95%. The AC50 under setting [1] was 0.398 µM [rising, full curve, poor fit]. In the case of `CC(=O)Oc1ccc2ccccc2c1C(NC(=O)Cc1ccccc1)c1ccccc1Cl` (centres undefined), the AC50 under setting [2] was 4.61 µM [falling, partial curve, poor fit]. Consider `CC(C)NC(=O)C(=O)NC1CCCCCC1`, for which the cell number change was -4.07%. Still for that read-out and setting: the figure for `Cc1cccc(C(=O)N2CCN(Cc3ccc4c(c3)OCO4)CC2)c1` is -5.31%; for `Cc1nn(C(C)C(=O)NCCCN2CCCCCC2)c(=O)c2cc3sccc3n12` (centres undefined) it is 21.5%.

Take `CCc1ccccc1NC(=O)CN1CCN(C(=O)C2CCN(C(=O)/C=C/c3ccccc3)CC2)CC1`: the cell number change amounted to 0.82%. Still for that read-out and setting: the result for `Cc1cc(C)cc(N(CC(=O)Nc2ccc(Br)cc2)S(=O)(=O)c2c(C)[nH]c(=O)[nH]c2=O)c1` reads 10.3%. For `O=C(Nc1ccccc1C(=O)Nc1ccc(Cl)cc1)c1cccnc1`, the cell number change is 11.9%.

Take `Cc1cccc(-n2cc(CNCCc3nc(C)cc(C)n3)c(-c3cccc(F)c3)n2)c1`: the cell number change is -4.13%. Besides, the AC50 under setting [2] was 0.58 µM [rising, full curve, poor fit].

As for `COc1ccc(/C=C/C=N/NC(=O)COc2ccc(OC)cc2)cc1`, the cell number change came out at 24.9%. Further, the AC50 under setting [1] is 4.61 µM [rising, full curve, poor fit].

On to `CN(CC(=O)Nc1ccc(N2CCOCC2)cc1)C(=O)c1ccc(O)c(Cl)c1`, for which, under setting [1], the AC50 was 29.1 µM [rising, partial curve, poor fit]. Consider `COc1ccccc1C(=O)NCCC(=O)NCCOc1ccccc1`, for which the cell number change was -11.5%. Moreover, the AC50 under setting [1] is 14.1 µM [falling, single point].

For the compound `O=C(CCN1CCN(S(=O)(=O)c2cccc([N+](=O)[O-])c2)CC1)Nc1ccccc1F`, the cell number change was determined as 12.4%. In addition, the AC50 under setting [1] is 29.1 µM [falling, partial curve, poor fit]. Consider `COc1ccc(Br)cc1C(=O)Nc1ccc(C(=O)O)cc1`, for which the cell number change was -14.5%. Further, the AC50 under setting [1] is 0.112 µM [falling, full curve, poor fit]. As to `OCCOc1cccc(CN2CCC(CO)(CCOc3ccccc3)CC2)c1`, the cell number change was found to be 20%. Moreover, under setting [1], the AC50 is 6.51 µM [falling, single point]. `CCCCC(=O)Nc1cccc(-c2nnc(-c3ccccc3)o2)c1`: the AC50 is 0.0731 µM [rising, full curve] under setting [2] and 0.0517 µM [rising, full curve, poor fit] under setting [1].

Turning to `COc1cc2c(cc1OC)CN(C(=O)CNS(=O)(=O)c1ccc(C)c(C)c1)CC2`, the cell number change is 11.7%. For the same compound, the AC50 under setting [1] is 1.16 µM [rising, single point]. On to `CC(C)(C)c1ccc(OCCC(=O)OCC(=O)NC2CCS(=O)(=O)C2)cc1` (centres undefined), for which the cell number change is -25%. For the same compound, under setting [2], the AC50 is 3.26 µM [falling, full curve, poor fit]. Besides, the AC50 under setting [1] is 0.00461 µM [falling, full curve, poor fit].

Consider `COc1ccccc1/C=C/C(=O)NNC(=O)c1cccs1`, for which the cell number change was -21.6%. Besides, the AC50 under setting [1] was 0.291 µM [rising, full curve]. Turning to `CCN(C(=O)COC(=O)c1cc(S(=O)(=O)Nc2c(C)n(C)n(-c3ccccc3)c2=O)ccc1Cl)C1CCCCC1`, the AC50 under setting [1] was 4.11 µM [falling, single point]. The same measure, in the same setting: the result for `O=C(NCc1ccccc1)c1onc(CSc2nc3ccccc3[nH]2)c1C(=O)NCc1ccccc1` reads 16.4 µM [falling, partial curve]. Consider `O=C(NC(=S)Nc1ccc2cn[nH]c2c1)c1ccccc1`, for which the cell number change was -22.2%. Besides, the AC50 under setting [2] is 2.06 µM [rising, partial curve]. As for `CCN(CC)C(=O)CSc1nc(O)c(Cc2ccc(OC)cc2)c(=O)[nH]1`, the cell number change stood at 1.59%. Turning to `O=C(Nc1ccc2c(c1)OCO2)C1CC(c2ccccc2Cl)=NO1` (centres undefined), the cell number change is -1.59%. Besides, the AC50 under setting [1] is 3.26 µM [rising, full curve]. In the case of `C/C=C/c1ccc(OCC(=O)Nc2cc(Cl)ccc2-n2cncn2)c(OC)c1`, the AC50 under setting [2] is 0.92 µM [rising, partial curve, poor fit] and the concentration at half-maximal activity (AC50) under setting [1] was 1.84 µM [rising, partial curve].

Turning to `O=C(Cc1ccccc1)NCC(=O)OCC(=O)c1cccs1`, the cell number change is 14.3%. Regarding `Cn1c(SCC(=O)NC2CC2)nnc1C(F)(F)F`, the cell number change is -0.91%. Also, the AC50 under setting [1] is 18.4 µM [falling, single point].

In the case of `Cc1cccc2cc(CN(CC3CCCO3)C(=S)Nc3ccccc3)c(=O)[nH]c12` (centres undefined), the cell number change was -5.78%. Besides, the AC50 under setting [1] was 29.1 µM [falling, single point]. Consider `COc1nc(N)c(C#N)c(-c2ccc(N(C)CCC#N)cc2)c1C#N`, for which the cell number change turned out to be 4.11%. Further, the AC50 under setting [1] was 1.46 µM [rising, partial curve].

For `CCCCOC(=O)c1ccc(N2C(=O)CC(N3CCN(C/C=C/c4ccccc4)CC3)C2=O)cc1` (centres undefined), the cell number change is -10.2%. Further, under setting [2], the AC50 was 0.731 µM [falling, single point]. Under setting [1], the AC50 is 29.1 µM [rising, single point].

For `Cc1nn(-c2ccccc2)c2sc(C(=O)NCCN3CCOCC3)cc12`, the cell number change was found to be 3.97%. In the case of `Cc1ccc(C(=O)C(C)OC(=O)CNC(=O)c2ccc(Br)o2)cc1` (centres undefined), the cell number change worked out at 24.5%. Under setting [1], the concentration at half-maximal activity (AC50) is 4.61 µM [rising, full curve]. For `Cc1ccc(NC(=O)CN(C)S(=O)(=O)c2cccs2)cc1C`, the cell number change came out at 30%. Further, under setting [2], the AC50 was 2.91 µM [rising, full curve, poor fit]. Take `Cc1cc(C)cc(N(CC(=O)Nc2ccccc2-c2ccccc2)S(=O)(=O)c2ccccc2)c1`: the cell number change came out at 25.1%. The AC50 under setting [1] was 4.11 µM [rising, full curve, poor fit].

With `CCN(CC)c1nc(N2CCOCC2)nc2ccccc12`, the cell number change stood at 24.3%. Regarding `CCOC(=O)c1cc2occc2n1CC(=O)N1CCOCC1`, the cell number change is 31.3%. For the same compound, the AC50 under setting [2] was 18.4 µM [rising, single point]. As to `S=c1[nH]cc(-c2ccccc2)n1-c1ccccc1Cl`, the cell number change turned out to be 0.627%. Under setting [1], the AC50 was 0.116 µM [rising, full curve, poor fit]. Consider `O=C(COC(=O)/C=C/c1ccccc1F)Nc1nnc(-c2ccccc2)o1`, for which the cell number change stood at 60.5%. Regarding `Cc1nc2[nH]c(=O)c3c(n2n1)NC1=C(C(=O)CC(C)(C)C1)C3c1ccccc1` (centres undefined), the AC50 under setting [1] is 6.51 µM [falling, partial curve]. As to `Cc1c(NC(=O)C(C)OC(=O)CCOc2ccccc2)c(=O)n(-c2ccccc2)n1C` (centres undefined), the cell number change is -19.5%. Also, under setting [2], the AC50 is 0.731 µM [falling, full curve, poor fit]. Moreover, the concentration at half-maximal activity (AC50) under setting [1] is 0.146 µM [falling, full curve]. Turning to `Cc1ccc(NC(=O)c2nc[nH]c2C(=O)N[C@@H](C)c2ccccc2)cc1`, the cell number change is -34.5%. The AC50 under setting [1] is 0.92 µM [falling, full curve, poor fit]. For `Cc1cc(C)cc(NC(=O)COC(=O)Cc2ccccc2F)c1`, the cell number change was -40.9%. Moreover, the AC50 under setting [2] was 29.1 µM [falling, single point]. Further, the AC50 under setting [1] was 0.731 µM [falling, single point]. For `CC(C)C(=O)Nc1ccc(N2CCCC2)c(Cl)c1`, the cell number change was found to be 28.4%. For the same compound, under setting [1], the half-maximal activity concentration (AC50) is 29.1 µM [rising, single point]. Take `Cc1cc(=O)c(C(=O)Nc2cccc(N3CCCC3=O)c2)nn1-c1ccccc1Cl`: the cell number change is -23.1%. The AC50 under setting [2] was 0.103 µM [rising, full curve, poor fit]. For the same compound, under setting [1], the AC50 was 0.092 µM [rising, full curve, poor fit]. For `CCCS(=O)(=O)c1c(S(=O)(=O)CCC)c2c(N)cccn2c1C(=O)c1ccc(Br)cc1`, the cell number change is -16.8%. For the same compound, the AC50 under setting [1] is 29.1 µM [falling, single point].

For the compound `CCOC(=O)c1[nH]c(C)c(C(=O)Nc2ccc(C)c(C)c2)c1C`, the cell number change amounted to 15.8%. Regarding `N#C/C(=C/c1ccc(Oc2ccc([N+](=O)[O-])cn2)cc1)C(=O)N1CCOCC1`, the AC50 under setting [1] was 25.9 µM [falling, partial curve, poor fit]. As for `CCCCSc1nc(C)c(CC(=O)OC)c(=O)[nH]1`, the cell number change came out at 15.4%. Moreover, the AC50 under setting [1] is 29.1 µM [rising, single point].

`Cc1ccnc(NS(=O)(=O)c2ccc(NC(=O)/C=C/c3cccs3)cc2)n1`: the cell number change came to 24.2%. For `O=C(COC(=O)C(c1ccccc1)c1ccccc1)NCc1ccco1`, the cell number change was 56.3%. Also, the AC50 under setting [2] was 29.1 µM [rising, single point].

One may read the AC50 as the concentration at which the activity in the assay is half-maximal.
